Results from publication doi:10.1101/2022.07.22.501112.
No constants are given. Whether binding was seen depends on the method and setting. For part of these data: Binding seen in cells or lysates may run through a third protein. Some results given as binding are weak or reduced against the parent protein; the word gives no strength. For part of these data: Where a sequence is shown, tags or fusion partners need not be part of it.

Amino acid sequences for entries named in this document (tags omitted). Residues count along the entry.
UniProt Q07021, 74-282: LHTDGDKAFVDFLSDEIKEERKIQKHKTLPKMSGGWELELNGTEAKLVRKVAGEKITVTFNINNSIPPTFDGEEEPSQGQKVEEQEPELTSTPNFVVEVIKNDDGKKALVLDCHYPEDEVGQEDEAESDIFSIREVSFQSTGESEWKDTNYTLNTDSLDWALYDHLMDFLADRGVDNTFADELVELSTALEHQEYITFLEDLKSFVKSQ

Key:
[1] = target: FLAG-tagged MIER1(aa:171-350), ELM2-SANT domain (human) (UniProt Q8N108); assay: SEC-MALS
[2] = target: T1, FLAG-tagged MIER1(aa:171-512) (human) (UniProt Q8N108); assay: co-IP + SEC
T1 sequence: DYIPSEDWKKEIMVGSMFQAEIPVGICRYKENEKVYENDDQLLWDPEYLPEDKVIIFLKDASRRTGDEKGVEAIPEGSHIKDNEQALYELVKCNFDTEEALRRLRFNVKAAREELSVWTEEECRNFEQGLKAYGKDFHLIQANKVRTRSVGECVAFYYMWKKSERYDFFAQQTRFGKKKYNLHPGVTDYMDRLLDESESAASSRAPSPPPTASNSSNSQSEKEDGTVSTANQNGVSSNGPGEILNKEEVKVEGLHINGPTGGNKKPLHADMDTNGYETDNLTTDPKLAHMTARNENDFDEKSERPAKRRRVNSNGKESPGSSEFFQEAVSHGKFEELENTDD

[3] = target: Full length FLAG tagged MIER1(aa:1-512) (human) (UniProt Q8N108); assay: co-IP + SEC

binding [1]	binding [2]	binding [3]	Substance
no binding			FLAG-tagged MIER1(aa:171-350), ELM2-SANT domain (from UniProt Q8N108 171-350) (domain or fragment)
	binds	binds	endogenous C1QBP, mature form (from UniProt Q07021 74-282)
